Measured values published in the supplement of paper PMC10849652.
Some of the results follow.

Sequences of proteins named here, by UniProt entry; tags and fusion partners are left off. A change or cut given only in a name is not applied to a line headed by its entry.
UniProt Q92990: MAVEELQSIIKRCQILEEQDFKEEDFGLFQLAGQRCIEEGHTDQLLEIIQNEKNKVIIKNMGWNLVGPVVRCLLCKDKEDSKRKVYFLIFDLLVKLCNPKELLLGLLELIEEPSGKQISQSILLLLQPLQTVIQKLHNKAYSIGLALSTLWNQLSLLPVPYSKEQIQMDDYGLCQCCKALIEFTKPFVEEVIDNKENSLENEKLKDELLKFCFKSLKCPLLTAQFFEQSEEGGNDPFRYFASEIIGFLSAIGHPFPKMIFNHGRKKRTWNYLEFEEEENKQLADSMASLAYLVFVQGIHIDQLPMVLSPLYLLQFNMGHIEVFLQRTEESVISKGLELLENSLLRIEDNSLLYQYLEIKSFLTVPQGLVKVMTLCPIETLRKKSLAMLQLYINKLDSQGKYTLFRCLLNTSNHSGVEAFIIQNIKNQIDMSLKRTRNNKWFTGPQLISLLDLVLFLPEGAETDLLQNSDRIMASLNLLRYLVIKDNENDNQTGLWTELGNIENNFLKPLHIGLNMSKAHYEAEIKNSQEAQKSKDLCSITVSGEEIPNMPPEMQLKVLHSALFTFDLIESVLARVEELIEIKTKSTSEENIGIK
UniProt Q5T7V8: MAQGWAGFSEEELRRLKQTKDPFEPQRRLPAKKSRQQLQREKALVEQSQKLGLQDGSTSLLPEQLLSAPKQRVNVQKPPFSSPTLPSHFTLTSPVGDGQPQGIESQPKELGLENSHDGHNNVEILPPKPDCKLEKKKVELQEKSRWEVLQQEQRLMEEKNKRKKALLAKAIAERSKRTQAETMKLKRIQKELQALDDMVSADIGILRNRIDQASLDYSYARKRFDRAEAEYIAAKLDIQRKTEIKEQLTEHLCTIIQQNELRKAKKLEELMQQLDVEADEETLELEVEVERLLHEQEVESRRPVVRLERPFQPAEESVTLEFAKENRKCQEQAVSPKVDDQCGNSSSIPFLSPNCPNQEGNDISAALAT
UniProt A6NDN3: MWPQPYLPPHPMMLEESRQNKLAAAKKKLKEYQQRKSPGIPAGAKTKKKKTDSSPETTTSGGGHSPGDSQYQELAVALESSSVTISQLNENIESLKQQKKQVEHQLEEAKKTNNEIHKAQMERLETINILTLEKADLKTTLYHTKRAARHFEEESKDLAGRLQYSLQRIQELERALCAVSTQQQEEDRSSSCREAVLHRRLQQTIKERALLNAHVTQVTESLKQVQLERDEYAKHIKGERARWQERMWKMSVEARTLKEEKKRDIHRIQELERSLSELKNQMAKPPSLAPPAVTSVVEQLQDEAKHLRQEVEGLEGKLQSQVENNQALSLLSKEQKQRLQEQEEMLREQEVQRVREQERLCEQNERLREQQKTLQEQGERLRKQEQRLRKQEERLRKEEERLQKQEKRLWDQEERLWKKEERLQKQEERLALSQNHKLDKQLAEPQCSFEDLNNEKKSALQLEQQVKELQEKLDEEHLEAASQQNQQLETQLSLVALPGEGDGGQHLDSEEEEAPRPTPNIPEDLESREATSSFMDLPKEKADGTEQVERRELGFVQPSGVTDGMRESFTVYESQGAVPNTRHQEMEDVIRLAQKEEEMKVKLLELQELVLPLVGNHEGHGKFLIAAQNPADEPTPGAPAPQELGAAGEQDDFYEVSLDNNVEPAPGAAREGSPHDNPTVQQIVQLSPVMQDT
UniProt Q7Z2K8: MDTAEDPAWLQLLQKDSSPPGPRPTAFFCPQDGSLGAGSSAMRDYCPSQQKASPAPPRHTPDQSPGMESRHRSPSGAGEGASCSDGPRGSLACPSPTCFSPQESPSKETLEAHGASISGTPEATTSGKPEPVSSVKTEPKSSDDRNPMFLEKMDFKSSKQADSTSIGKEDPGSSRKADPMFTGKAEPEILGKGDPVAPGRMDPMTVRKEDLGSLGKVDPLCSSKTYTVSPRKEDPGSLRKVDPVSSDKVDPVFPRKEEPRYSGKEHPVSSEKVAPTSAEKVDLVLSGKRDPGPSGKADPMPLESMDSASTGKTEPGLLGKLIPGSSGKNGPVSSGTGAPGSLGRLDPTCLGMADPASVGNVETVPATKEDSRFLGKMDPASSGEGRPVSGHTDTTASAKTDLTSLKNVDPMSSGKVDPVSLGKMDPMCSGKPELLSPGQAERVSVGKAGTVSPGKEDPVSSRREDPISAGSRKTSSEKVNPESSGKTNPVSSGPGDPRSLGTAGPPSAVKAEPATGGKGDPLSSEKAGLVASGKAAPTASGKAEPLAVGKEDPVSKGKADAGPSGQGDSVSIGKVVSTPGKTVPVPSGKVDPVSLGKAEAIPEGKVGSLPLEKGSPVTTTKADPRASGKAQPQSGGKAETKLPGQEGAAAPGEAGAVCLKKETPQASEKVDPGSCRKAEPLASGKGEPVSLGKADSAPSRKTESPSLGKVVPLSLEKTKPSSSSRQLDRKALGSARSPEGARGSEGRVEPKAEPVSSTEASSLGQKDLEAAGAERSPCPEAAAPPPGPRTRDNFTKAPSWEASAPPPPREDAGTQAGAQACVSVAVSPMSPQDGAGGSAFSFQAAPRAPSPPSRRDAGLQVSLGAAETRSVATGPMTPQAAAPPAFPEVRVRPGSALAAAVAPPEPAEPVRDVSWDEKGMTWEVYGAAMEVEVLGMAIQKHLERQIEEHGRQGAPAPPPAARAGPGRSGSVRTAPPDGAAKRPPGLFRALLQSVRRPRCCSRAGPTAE
UniProt Q9Y3E0: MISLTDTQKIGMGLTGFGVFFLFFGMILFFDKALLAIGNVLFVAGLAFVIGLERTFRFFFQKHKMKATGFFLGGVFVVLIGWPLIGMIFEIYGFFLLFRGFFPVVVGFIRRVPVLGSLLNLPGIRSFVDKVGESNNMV
UniProt Q92820: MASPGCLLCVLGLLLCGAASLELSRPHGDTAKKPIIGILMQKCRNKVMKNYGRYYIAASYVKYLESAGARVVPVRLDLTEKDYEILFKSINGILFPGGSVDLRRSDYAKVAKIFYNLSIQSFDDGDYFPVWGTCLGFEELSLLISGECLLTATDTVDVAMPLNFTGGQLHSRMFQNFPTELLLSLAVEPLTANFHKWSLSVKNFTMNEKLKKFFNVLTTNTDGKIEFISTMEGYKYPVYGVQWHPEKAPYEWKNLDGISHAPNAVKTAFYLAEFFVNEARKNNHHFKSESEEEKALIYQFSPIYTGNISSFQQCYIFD
UniProt P21695: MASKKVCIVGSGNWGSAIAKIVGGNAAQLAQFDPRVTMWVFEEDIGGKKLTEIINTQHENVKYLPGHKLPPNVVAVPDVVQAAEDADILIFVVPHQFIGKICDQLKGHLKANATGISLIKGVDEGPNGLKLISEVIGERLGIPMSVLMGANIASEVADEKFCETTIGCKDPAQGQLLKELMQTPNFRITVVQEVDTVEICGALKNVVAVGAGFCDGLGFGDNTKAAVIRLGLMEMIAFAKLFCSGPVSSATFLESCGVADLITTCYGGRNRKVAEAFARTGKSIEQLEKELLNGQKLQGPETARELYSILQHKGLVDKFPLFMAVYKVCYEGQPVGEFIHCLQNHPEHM
UniProt Q9UKJ3: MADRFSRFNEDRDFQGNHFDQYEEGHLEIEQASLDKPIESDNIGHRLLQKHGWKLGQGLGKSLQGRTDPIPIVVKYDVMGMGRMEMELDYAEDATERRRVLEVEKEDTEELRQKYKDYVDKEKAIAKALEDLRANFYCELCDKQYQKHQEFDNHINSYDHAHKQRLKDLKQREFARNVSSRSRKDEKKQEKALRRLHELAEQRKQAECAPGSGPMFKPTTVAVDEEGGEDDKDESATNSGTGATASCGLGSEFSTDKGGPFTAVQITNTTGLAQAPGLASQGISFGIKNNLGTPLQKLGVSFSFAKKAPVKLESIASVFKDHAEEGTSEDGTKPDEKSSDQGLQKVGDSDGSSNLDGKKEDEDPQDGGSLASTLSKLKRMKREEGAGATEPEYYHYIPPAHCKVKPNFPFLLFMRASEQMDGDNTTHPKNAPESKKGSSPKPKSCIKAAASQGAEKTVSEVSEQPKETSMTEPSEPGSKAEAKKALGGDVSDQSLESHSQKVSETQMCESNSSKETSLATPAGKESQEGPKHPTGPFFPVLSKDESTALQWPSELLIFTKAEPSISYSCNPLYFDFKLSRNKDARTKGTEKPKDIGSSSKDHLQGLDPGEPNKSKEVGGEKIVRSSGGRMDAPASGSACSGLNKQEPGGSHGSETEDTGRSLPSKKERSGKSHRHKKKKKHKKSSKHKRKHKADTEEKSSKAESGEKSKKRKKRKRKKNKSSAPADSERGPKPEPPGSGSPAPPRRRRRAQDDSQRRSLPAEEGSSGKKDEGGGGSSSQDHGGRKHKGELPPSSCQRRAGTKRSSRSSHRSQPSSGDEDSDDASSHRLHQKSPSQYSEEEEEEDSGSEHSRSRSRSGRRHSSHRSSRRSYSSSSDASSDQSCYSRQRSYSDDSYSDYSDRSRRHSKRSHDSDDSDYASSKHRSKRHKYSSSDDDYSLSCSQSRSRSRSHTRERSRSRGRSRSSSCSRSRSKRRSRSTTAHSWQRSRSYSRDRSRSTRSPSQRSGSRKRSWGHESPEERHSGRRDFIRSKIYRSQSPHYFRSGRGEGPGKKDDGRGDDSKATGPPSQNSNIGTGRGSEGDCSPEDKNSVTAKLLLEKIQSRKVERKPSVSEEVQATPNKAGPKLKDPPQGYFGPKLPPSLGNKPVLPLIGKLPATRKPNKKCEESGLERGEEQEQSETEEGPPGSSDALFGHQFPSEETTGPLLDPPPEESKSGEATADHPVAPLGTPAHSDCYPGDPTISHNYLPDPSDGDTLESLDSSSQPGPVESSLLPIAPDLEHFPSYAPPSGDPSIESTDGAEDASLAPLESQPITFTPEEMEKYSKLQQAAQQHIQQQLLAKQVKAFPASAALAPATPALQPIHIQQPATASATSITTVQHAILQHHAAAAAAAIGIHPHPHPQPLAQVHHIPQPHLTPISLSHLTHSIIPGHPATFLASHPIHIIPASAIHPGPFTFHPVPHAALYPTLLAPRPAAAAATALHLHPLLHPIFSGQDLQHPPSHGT
UniProt Q8IXQ4: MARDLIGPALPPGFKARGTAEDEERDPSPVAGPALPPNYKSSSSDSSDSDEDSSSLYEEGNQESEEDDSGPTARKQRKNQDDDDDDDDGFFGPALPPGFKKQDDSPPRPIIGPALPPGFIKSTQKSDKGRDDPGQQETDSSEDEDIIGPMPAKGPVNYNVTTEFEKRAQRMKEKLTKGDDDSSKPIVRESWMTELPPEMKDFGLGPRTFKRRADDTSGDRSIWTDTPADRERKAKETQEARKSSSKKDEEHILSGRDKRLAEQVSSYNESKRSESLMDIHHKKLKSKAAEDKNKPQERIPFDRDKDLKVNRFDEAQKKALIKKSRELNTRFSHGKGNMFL
UniProt Q9NS18: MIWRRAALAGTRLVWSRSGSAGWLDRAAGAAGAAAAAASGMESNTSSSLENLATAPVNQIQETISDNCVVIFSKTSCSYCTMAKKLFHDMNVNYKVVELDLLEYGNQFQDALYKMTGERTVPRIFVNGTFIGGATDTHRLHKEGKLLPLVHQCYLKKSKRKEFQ
UniProt Q9Y248: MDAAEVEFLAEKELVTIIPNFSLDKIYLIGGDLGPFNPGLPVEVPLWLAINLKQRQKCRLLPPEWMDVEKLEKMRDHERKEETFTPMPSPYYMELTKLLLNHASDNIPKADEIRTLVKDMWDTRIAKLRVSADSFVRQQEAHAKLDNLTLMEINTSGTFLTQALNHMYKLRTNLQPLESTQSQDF
UniProt Q8TBA6: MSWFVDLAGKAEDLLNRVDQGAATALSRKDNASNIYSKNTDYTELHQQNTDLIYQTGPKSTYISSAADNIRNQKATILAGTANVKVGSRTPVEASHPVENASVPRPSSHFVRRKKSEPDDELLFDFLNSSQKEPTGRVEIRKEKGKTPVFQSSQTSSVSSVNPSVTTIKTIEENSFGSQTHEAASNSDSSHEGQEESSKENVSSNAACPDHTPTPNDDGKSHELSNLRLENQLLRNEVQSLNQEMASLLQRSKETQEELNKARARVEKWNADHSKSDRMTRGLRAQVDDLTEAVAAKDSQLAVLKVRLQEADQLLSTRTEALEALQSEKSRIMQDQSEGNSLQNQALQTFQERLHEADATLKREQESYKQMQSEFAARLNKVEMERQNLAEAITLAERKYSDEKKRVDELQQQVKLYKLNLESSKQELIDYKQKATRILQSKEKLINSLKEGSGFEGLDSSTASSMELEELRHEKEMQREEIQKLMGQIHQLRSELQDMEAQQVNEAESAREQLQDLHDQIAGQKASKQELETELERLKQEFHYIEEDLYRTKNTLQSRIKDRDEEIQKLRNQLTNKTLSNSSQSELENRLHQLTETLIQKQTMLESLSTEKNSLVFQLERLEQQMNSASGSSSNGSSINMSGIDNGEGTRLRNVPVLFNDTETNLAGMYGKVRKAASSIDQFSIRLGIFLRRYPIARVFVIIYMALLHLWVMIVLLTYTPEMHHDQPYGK

Columns and labels:
Assay in all cases: log2 fold change, soluble protein after heating vs DMSO (PISA); higher = thermal stabilisation; K562 lysate, 10 uM; active = over 0.2 and 3.5 SD of the protein, either way, in both replicates (recomputed)
[1] = compound: CN1CC[C@H](c2c(O)cc(O)c3c(=O)cc(-c4ccccc4Cl)oc23)[C@H](O)C1 [alvocidib]
Method in brief: (§1)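 To prepare the extract, K562 pellets were dounce-homogenised in PBS pH 7.4 with 1 mM MgCl2, giving crude material at 1 mg/mL protein. This was treated with 10 μM compound for 30 min, then heated in aliquots for 3 min over 48°C-58°C before pooling and addition of NP-40 to 0.5% at 4°C. Centrifugation at 21,000xg for 90 min left soluble protein in the supernatant, which TMTpro 16plex LC-MS/MS quantified with equalised channel sums. Results are log-two fold changes in thermal stability compared with solvent controls, from duplicates.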

[2] = compound: CN1CCc2c(c3ccccc3n2Cc2ccc(C(=O)NO)cc2)C1 [Tubastatin A]
Method in brief: as §1

[3] = compound: CNC(=O)C1=CC=CC=C1NC2=NC(=NC=C2Cl)NC3=C(C=C(C=C3)N4CCOCC4)OC
Method in brief: as §1

[4] = compound: CNC(=O)c1ccc(Nc2ncc(C(F)(F)F)c(NCc3nccnc3N(C)S(C)(=O)=O)n2)cc1 [defactinib]
Method in brief: as §1

[5] = compound: CNc1nc(-c2ccc3c(N)n[nH]c3c2)cc(N2C[C@@H](C(=O)NC3CCCCC3)CC[C@H]2C)n1
Method in brief: as §1

[6] = compound: COC(=O)N[C@@H](C)CNc1nccc(-c2cn(C(C)C)nc2-c2cc(Cl)cc(NS(C)(=O)=O)c2F)n1 [encorafenib]
Method in brief: as §1

[7] = compound: COC(=O)[C@H](CCSC)NC(=O)C1=C(C=C(C=C1)NC[C@H](CS)N)C2=CC=CC=C2
Method in brief: as §1

[8] = compound: COc1cc(Nc2ncc3c(n2)-c2ccc(Cl)cc2C(c2c(F)cccc2OC)=NC3)ccc1C(=O)O [alisertib]
Method in brief: as §1

[9] = compound: COc1cc2nc(-c3cc(F)ccc3O)nc(N[C@@H]3CNC[C@H]3C(C)(C)O)c2cc1OC
Method in brief: as §1

[10] = compound: COc1cc2ncnc(Nc3ccc(F)c(Cl)c3)c2cc1OCCCN1CCOCC1 [gefitinib]
Method in brief: as §1

[11] = compound: CS(=O)(=O)CCNCc1ccc(-c2ccc3ncnc(Nc4ccc(OCc5cccc(F)c5)c(Cl)c4)c3c2)o1 [lapatinib]
Method in brief: as §1

[12] = compound: CS(=O)(=O)N1CCN(Cc2cc3nc(-c4cccc5[nH]ncc45)nc(N4CCOCC4)c3s2)CC1 [pictilisib]
Method in brief: as §1

[13] = compound: C[C@@H](Oc1cc(-c2cnn(C3CCNCC3)c2)cnc1N)c1c(Cl)ccc(F)c1Cl [crizotinib]
Method in brief: as §1

[14] = compound: C[C@H](C1=CC=C(C=C1)C(=O)NC2=C3C=CNC3=NC=C2)N
Method in brief: as §1

[15] = compound: C[C@H](Nc1ncnc2nc[nH]c12)c1cc2cccc(Cl)c2c(=O)n1-c1ccccc1 [duvelisib]
Method in brief: as §1

[16] = compound: Cc1cc(Nc2cc(CN3CCOCC3)c3nc(C)c(Cc4ccc(Cl)cc4F)n3n2)n[nH]1 [gandotinib]
Method in brief: as §1

[17] = compound: Cc1cc(Nc2cc(N3CCN(C)CC3)nc(Sc3ccc(NC(=O)C4CC4)cc3)n2)n[nH]1 [tozasertib]
Method in brief: as §1

[18] = compound: Cc1ccc(-n2nc(C(C)(C)C)cc2NC(=O)Nc2ccc(OCCN3CCOCC3)c3ccccc23)cc1 [doramapimod]
Method in brief: as §1

[19] = compound: Cc1ccc(NC(=O)c2ccc(CN3CC[C@H](N(C)C)C3)c(C(F)(F)F)c2)cc1Nc1nccc(-c2cncnc2)n1 [bafetinib]
Method in brief: as §1

[20] = compound: Cc1cccc(CC(=O)N2CCc3c2ccc(-c2cn(C)c4ncnc(N)c24)c3F)n1
Method in brief: as §1

Measured: log2 fold change

GLMN (UniProt Q92990)
inactive: [1] -0.002 | [2] -0.033 | [3] -0.007 | [4] -0.011 | [5] -0.018 | [6] -0.029 | [7] 0.045 | [8] 0.009 | [9] 0.009 | [10] 0.007 | [11] 0.014 | [12] -0.002 | [13] -0.01 | [14] -0.018 | [15] 0.035 | [16] 0 | [17] -0.003 | [18] 0.004 | [19] -0.018 | [20] 0.066

GORAB (UniProt Q5T7V8)
inactive: [1] 0.001 | [2] 0.043 | [3] 0.045 | [4] 0.143 | [5] 0.109 | [6] 0.06 | [7] -0.026 | [8] -0.006 | [9] 0.016 | [10] -0.021 | [11] 0.004 | [12] 0.016 | [13] -0.021 | [14] 0.038 | [15] -0.065 | [16] 0.048 | [17] -0.052 | [18] 0.009 | [19] 0.121 | [20] -0.063

GNL3L (UniProt Q9NVN8)
inactive: [1] -0.004 | [2] -0.061 | [3] 0.023 | [4] 0.033 | [5] 0.089 | [6] 0.241 | [7] 0.108 | [8] 0.026 | [9] 0.096 | [10] -0.021 | [11] 0.028 | [12] 0.019 | [13] -0.061 | [14] -0.012 | [15] 0.029 | [16] 0.089 | [17] -0.031 | [18] 0.014 | [19] -0.228 | [20] 0.081

GOLGA6B (UniProt A6NDN3)
inactive: [1] -0.019 | [2] -0.054 | [3] -0.002 | [4] 0.018 | [5] -0.086 | [6] -0.048 | [7] -0.053 | [8] -0.074 | [9] 0.043 | [10] 0.065 | [11] -0.105 | [12] -0.061 | [13] -0.193 | [14] -0.105 | [15] 0.121 | [16] 0.109 | [17] 0.027 | [18] -0.381 | [19] -0.04 | [20] 0

GPRIN1 (UniProt Q7Z2K8)
inactive: [1] 0.005 | [2] 0.043 | [3] 0.042 | [4] 0.019 | [5] 0.06 | [6] -0.018 | [7] -0.029 | [8] 0.034 | [9] -0.026 | [10] 0.039 | [11] -0.013 | [12] -0.004 | [13] -0.015 | [14] 0.029 | [15] -0.001 | [16] 0.019 | [17] 0.013 | [18] 0.007 | [19] 0.003 | [20] -0.037

GOLT1B (UniProt Q9Y3E0)
inactive: [1] -0.027 | [2] 0.033 | [3] 0.012 | [4] -0.027 | [5] 0.002 | [6] 0.004 | [7] -0.027 | [8] -0.068 | [9] 0.042 | [10] -0.076 | [11] -0.007 | [12] 0.004 | [13] -0.015 | [14] -0.02 | [15] 0.021 | [16] 0.039 | [17] -0.006 | [18] -0.029 | [19] 0.062 | [20] 0.009

GGT1 (UniProt P19440)
inactive: [1] -0.049 | [2] -0.021 | [3] -0.026 | [4] 0.024 | [5] -0.017 | [6] 0.052 | [7] -0.02 | [8] 0.019 | [9] -0.05 | [10] -0.011 | [11] 0.028 | [12] -0.024 | [13] 0.118 | [14] -0.08 | [15] 0.02 | [16] 0.03 | [17] 0.034 | [18] 0.026 | [19] 0.025 | [20] 0.01

GPAT4 (UniProt Q86UL3)
inactive: [1] -0.009 | [2] 0.063 | [3] 0.019 | [4] -0.005 | [5] -0.028 | [6] 0.028 | [7] -0.025 | [8] -0.005 | [9] -0.003 | [10] 0.012 | [11] -0.014 | [12] -0.014 | [13] 0.049 | [14] -0.092 | [15] 0.032 | [16] 0.062 | [17] 0.039 | [18] -0.017 | [19] -0.118 | [20] 0.104

GGH (UniProt Q92820)
inactive: [1] -0.033 | [2] 0.061 | [3] 0.005 | [4] 0.029 | [5] 0.041 | [6] 0.008 | [7] -0.028 | [8] 0.013 | [9] 0.009 | [10] -0.035 | [11] -0.006 | [12] 0.071 | [13] -0.046 | [14] -0.076 | [15] 0.033 | [16] 0.17 | [17] -0.03 | [18] -0.012 | [19] 0.078 | [20] 0.085

Random excerpt: two records from the list, in no set order.
GGH (UniProt Q92820)
inactive: [1] -0.033 | [2] 0.061 | [3] 0.005 | [4] 0.029 | [5] 0.041 | [6] 0.008 | [7] -0.028 | [8] 0.013 | [9] 0.009 | [10] -0.035 | [11] -0.006 | [12] 0.071 | [13] -0.046 | [14] -0.076 | [15] 0.033 | [16] 0.17 | [17] -0.03 | [18] -0.012 | [19] 0.078 | [20] 0.085

GGT1 (UniProt P19440)
inactive: [1] -0.049 | [2] -0.021 | [3] -0.026 | [4] 0.024 | [5] -0.017 | [6] 0.052 | [7] -0.02 | [8] 0.019 | [9] -0.05 | [10] -0.011 | [11] 0.028 | [12] -0.024 | [13] 0.118 | [14] -0.08 | [15] 0.02 | [16] 0.03 | [17] 0.034 | [18] 0.026 | [19] 0.025 | [20] 0.01

Continued:

GPD1 (UniProt P21695)
inactive: [1] 0.026 | [2] 0.145 | [3] -0.065 | [4] -0.165 | [5] 0.306 | [6] -0.048 | [7] 0.091 | [8] 0.177 | [9] 0.187 | [10] -0.059 | [11] -0.152 | [12] -0.023 | [13] -0.202 | [14] 0.022 | [15] 0.124 | [16] 0.072 | [17] -0.059 | [18] 0.219 | [19] -0.187 | [20] 0.038

GPATCH8 (UniProt Q9UKJ3)
inactive: [1] -0.027 | [2] -0.024 | [3] 0.016 | [4] 0.018 | [5] 0.114 | [6] 0.117 | [7] 0.021 | [8] 0.001 | [9] 0.031 | [10] 0.062 | [11] 0.004 | [12] 0.052 | [13] 0.087 | [14] -0.033 | [15] -0.012 | [16] 0.022 | [17] 0.082 | [18] 0.012 | [19] -0.025 | [20] 0.039

GPCPD1 (UniProt Q9NPB8)
inactive: [1] -0.016 | [2] -0.046 | [3] 0.008 | [4] 0.002 | [5] -0.014 | [6] -0.057 | [7] 0.086 | [8] 0.003 | [9] -0.005 | [10] -0.003 | [11] 0.031 | [12] -0.063 | [13] -0.076 | [14] -0.051 | [15] -0.052 | [16] 0.04 | [17] -0.027 | [18] 0.007 | [19] -0.119 | [20] 0.067

GPALPP1 (UniProt Q8IXQ4)
inactive: [1] -0.043 | [2] 0.036 | [3] -0.012 | [4] -0.006 | [5] 0.063 | [6] 0.013 | [7] -0.016 | [8] 0.007 | [9] 0.018 | [10] 0.07 | [11] 0.005 | [12] -0.012 | [13] 0.008 | [14] 0.02 | [15] 0.03 | [16] 0.025 | [17] -0.028 | [18] -0.033 | [19] -0.044 | [20] -0.01

GLRX2 (UniProt Q9NS18)
inactive: [1] 0.028 | [2] -0.006 | [3] 0.02 | [4] 0.04 | [5] 0.021 | [6] 0.015 | [7] -0.02 | [8] -0.058 | [9] -0.03 | [10] 0.031 | [11] 0.023 | [12] -0.041 | [13] 0.061 | [14] 0.13 | [15] 0.023 | [16] -0.06 | [17] -0.082 | [18] -0.039 | [19] -0.019 | [20] -0.18

GINS2 (UniProt Q9Y248)
inactive: [1] 0.044 | [2] 0.089 | [3] -0.007 | [4] 0.095 | [5] 0.001 | [6] 0.114 | [7] 0.025 | [8] 0.039 | [9] -0.027 | [10] -0.078 | [11] 0.063 | [12] -0.011 | [13] -0.049 | [14] 0.004 | [15] -0.055 | [16] -0.035 | [17] 0.056 | [18] -0.025 | [19] -0.012 | [20] 0.056

GOLGA5 (UniProt Q8TBA6)
inactive: [1] 0.004 | [2] -0.016 | [3] -0.02 | [4] 0.028 | [5] -0.031 | [6] 0.044 | [7] 0.002 | [8] 0.032 | [9] -0.002 | [10] 0.079 | [11] 0.022 | [12] -0.047 | [13] -0.015 | [14] -0.039 | [15] 0.002 | [16] -0.061 | [17] 0.009 | [18] 0.025 | [19] -0.025 | [20] 0.002
